These results are taken from paper PMC6784428.

Amino acid sequences for entries named in this document (tags omitted).
UniProt Q8JIY7: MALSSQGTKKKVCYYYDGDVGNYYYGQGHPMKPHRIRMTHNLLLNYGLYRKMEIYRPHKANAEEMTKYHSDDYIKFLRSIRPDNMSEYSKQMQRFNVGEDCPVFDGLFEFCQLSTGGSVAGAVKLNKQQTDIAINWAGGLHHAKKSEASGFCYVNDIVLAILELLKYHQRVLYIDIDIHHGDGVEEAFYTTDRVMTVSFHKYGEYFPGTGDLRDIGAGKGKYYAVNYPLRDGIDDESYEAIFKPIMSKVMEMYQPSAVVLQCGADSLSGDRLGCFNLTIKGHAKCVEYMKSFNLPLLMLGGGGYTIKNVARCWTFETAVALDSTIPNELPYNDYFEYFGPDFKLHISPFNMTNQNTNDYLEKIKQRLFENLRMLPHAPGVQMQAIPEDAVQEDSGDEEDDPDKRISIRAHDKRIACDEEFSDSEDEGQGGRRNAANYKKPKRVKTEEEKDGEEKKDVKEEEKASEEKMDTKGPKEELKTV

No constants are given. Whether binding was seen depends on the method and setting. In cells and extracts the contact can be indirect. Some entries that bind do so weakly or less than the wild type.

Experiment [1] has as its target T1, Octamer-binding transcription factor 4 (Oct4) (zebrafish (endogenous in retina)) (UniProt Q90270).
T1 sequence: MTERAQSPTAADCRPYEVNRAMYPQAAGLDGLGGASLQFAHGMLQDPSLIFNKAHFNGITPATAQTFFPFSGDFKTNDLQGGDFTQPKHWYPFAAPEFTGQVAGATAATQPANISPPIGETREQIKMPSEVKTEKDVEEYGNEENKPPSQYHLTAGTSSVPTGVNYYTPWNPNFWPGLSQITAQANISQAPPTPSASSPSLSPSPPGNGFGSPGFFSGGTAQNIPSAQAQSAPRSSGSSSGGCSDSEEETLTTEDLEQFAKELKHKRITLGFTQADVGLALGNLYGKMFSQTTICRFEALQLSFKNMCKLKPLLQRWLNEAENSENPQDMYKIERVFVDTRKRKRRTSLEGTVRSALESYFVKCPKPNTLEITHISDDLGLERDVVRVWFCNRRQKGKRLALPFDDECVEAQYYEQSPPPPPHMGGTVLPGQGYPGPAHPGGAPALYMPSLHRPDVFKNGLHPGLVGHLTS
The experiment is described as follows: co-IP; retinal lysate of injured adult zebrafish retina (16 hpi; also various time points post-injury and gfp mRNA-transfected control at 15 hpi); pull down with anti-Oct4 and anti-Hdac1 antibodies in separate experiments, Western blot for Hdac1 and Oct4. A general note: A western blot detects proteins with antibodies after separation by electrophoresis.

In experiment [2] the target is T1, Octamer-binding transcription factor 4 (Oct4) (zebrafish (endogenous in retina)). The experiment is described as follows: condition: only with hdac1 mRNA overexpression in the retina; co-IP; retinal lysate at 15 hpi of injured retina transfected with hdac1 mRNA (hdac1 overexpression); Co-IP of Oct4 and Hdac1, Western blot probed with anti-Hdac1 antibody.

For the substance “histone deacetylase1 (Hdac1) (from UniProt Q8JIY7 1-480)”, the binding result in experiment [1] is recorded as “binds”; in experiment [2], “no binding”.
